Laboratory results from article PMC9442473, “Centriole growth is limited by the Cdk/Cyclin-dependent phosphorylation of Ana2/STIL” (The Journal of Cell Biology, 2022).
No constants are given. Whether binding was seen depends on the method and setting.

Key:
[1] = biological target: T1, Sas-6-mNG (Drosophila melanogaster), Q9VAC8; test: condition: ∼7–15 nM (average cytoplasmic concentration); fluorescence correlation spectroscopy (FCS), photon-count rate per molecule (CPM); point FCS in the cytoplasm of living syncytial embryos at the beginning of nuclear cycle 12, 25.0-26.0°C; CPM compared with monomeric (mNG) and dimeric (dNG) NeonGreen controls; conditions: remark: other sources report otherwise
T1 chain: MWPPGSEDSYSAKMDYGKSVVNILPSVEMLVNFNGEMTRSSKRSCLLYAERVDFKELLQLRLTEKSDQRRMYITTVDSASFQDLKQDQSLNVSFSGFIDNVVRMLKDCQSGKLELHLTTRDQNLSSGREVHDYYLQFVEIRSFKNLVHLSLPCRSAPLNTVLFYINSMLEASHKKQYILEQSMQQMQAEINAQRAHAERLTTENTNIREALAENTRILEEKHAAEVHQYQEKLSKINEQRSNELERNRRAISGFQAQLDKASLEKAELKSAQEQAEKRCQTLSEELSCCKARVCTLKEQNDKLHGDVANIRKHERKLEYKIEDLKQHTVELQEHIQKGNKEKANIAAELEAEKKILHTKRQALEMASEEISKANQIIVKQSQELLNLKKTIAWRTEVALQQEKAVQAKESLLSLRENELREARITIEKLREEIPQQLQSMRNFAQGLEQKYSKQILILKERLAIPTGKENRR

[2] = biological target: T2, mNG-Sas-6 (Drosophila melanogaster), Q9VAC8; test: as above; conditions: remark: other sources report otherwise
T2 chain: T1 chain

[3] = biological target: T3, Asl-mNG (Drosophila melanogaster), Q9VNE4; test: as above; conditions: remark: other sources report otherwise
T3 chain: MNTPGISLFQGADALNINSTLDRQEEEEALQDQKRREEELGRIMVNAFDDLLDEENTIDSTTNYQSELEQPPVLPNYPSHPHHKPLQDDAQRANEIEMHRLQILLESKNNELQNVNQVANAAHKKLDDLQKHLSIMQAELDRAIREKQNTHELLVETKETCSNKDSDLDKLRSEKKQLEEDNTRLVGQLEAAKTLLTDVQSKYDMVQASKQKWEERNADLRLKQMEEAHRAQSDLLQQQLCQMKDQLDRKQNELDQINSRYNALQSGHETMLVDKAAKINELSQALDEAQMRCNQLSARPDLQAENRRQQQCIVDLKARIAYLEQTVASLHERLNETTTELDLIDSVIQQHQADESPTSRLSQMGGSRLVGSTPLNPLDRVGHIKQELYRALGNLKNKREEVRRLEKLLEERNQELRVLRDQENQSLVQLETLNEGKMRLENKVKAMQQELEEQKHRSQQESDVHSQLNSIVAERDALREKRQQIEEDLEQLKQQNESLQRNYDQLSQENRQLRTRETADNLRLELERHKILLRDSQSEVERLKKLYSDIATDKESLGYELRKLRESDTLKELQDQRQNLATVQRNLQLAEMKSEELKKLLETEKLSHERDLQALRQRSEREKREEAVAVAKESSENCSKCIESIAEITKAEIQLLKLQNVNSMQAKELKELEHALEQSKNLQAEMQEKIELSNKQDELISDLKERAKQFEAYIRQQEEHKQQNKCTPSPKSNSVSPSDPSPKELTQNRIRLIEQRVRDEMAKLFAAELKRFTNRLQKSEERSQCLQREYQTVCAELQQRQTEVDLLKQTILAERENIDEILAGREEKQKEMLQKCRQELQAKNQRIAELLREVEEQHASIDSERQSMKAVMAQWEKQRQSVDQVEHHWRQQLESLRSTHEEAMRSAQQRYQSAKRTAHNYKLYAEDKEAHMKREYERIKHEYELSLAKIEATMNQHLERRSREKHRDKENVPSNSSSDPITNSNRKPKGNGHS

[4] = biological target: T4, Sas-4-mNG (Drosophila melanogaster), Q9VI72; test: as above; conditions: remark: other sources report otherwise
T4 chain: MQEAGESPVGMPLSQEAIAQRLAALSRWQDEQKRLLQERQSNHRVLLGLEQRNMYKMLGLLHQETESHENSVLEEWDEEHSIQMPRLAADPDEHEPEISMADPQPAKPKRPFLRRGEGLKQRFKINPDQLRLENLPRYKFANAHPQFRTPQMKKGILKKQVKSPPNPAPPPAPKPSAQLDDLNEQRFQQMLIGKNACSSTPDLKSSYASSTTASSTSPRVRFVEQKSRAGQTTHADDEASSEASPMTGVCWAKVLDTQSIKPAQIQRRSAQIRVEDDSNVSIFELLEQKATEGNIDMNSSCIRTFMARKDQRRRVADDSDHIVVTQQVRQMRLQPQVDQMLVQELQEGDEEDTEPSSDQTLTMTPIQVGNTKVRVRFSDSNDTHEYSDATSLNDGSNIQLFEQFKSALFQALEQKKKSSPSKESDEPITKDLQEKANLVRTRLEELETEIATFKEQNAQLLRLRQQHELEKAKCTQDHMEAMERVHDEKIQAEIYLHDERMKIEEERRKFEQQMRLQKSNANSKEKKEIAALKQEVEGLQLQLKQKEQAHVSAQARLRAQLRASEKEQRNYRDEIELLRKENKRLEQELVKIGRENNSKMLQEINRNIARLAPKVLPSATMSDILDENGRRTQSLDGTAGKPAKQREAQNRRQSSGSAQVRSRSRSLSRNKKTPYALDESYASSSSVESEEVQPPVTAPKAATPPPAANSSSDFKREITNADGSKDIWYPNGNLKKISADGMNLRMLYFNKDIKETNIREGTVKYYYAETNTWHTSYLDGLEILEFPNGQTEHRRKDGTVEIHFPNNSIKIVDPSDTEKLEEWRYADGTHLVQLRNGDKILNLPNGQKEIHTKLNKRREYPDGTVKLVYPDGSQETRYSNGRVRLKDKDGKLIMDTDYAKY

[5] = biological target: eAna2(∆CC)-mNG (Drosophila melanogaster) (UniProt Q9XZ31); test: fluorescence correlation spectroscopy (FCS), cytoplasmic diffusion rate; point FCS in the cytoplasm of living syncytial embryos, nuclear cycle 12, 25.0-26.0°C; embryos with one copy of the mNG-tagged transgene and one copy of the untagged WT ana2 gene

B1: Sas-6-mNG, Q9VAC8 1-472 (protein)
chain: T1 chain
B1 was tested, and the binding [1] was “no binding”.

B2: mNG-Sas-6, Q9VAC8 1-472 (protein)
chain: T1 chain
B2 was tested, and the binding [2] was “no binding”.

B3: Asl-mNG, Q9VNE4 1-994 (protein)
chain: T3 chain
For B3, the binding [3] was “no binding”.

B4: Sas-4-mNG, Q9VI72 1-901 (protein)
chain: T4 chain
For B4, the binding [4] was “no binding”.

B5: eAna2(∆CC)-mNG (protein, UniProt Q9XZ31)
chain: MFVPETEDMLPRLAPRPSAAVPMGHTNEIIGPTVPEVSILFGQPPQDPQMQPQQPNHAHQESSPRAAPTFASWKKQMLPRVNFSPILATELGPRTAPSSNSPCSSKEYQVMPRDRNYASDAQQTTNHMNCNAGGYNAEPKQQAYQSRRLSSSSNADVLTICAGTQTDPFNPSPPRKSLPQVVYSDIDVSNLANKPEAISKASSTTGTQCDILTTNQAGRRLSPIMQDYIAEEEEPLPPPQARVIPQFPSPRPHPPIAQSTGYRANTPQAKRIPQLAKPNTEKSMVMNELALKYLRQPVDELMKDMRLGASPKSPNPEPLRPIDNIGHAQSPNDISNASYKYLKKYRLLPEEQLEPVCPQSPMAATAPSPHIQLDLENIRNQPKLL
B5 was tested, and the binding [5] was “no binding”.
